Drawing on patent US20240317867A1, this text covers binding for one molecule.

Results are given in words; binding and its absence hold for the method and conditions named. Some results given as binding are weak or reduced against the parent protein; the word gives no strength.

For the experiment, the target named is T1, IGFR-like receptor 2 (endogenous protein of mouse Min6 insulinoma cells) (mouse) (UniProt Q3UZV7).
T1 sequence (looked up): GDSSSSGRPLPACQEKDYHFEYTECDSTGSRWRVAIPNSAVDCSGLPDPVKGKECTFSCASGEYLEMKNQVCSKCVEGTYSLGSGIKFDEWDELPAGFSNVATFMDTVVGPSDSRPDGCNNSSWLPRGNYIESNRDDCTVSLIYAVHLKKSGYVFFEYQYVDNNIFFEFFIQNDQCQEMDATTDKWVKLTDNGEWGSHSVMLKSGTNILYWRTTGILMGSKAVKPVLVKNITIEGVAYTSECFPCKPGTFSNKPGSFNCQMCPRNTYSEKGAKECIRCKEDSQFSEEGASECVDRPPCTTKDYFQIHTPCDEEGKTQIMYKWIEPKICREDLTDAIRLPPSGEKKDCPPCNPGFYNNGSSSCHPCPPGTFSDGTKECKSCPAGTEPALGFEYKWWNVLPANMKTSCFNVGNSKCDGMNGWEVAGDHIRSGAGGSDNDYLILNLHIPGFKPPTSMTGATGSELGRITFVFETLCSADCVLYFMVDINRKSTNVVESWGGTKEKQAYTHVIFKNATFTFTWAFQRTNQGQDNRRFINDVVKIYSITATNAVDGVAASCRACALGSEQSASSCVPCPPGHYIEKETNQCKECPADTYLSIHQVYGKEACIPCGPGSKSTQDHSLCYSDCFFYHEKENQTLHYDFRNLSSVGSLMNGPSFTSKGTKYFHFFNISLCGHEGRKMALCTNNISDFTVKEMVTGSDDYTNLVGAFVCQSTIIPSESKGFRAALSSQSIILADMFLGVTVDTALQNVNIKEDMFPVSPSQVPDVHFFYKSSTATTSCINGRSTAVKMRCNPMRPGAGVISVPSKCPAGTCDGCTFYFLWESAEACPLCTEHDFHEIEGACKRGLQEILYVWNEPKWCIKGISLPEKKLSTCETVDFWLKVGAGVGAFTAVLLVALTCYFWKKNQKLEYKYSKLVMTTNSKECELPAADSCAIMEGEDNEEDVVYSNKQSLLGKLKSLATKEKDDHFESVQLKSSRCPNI
Briefly: immunoprecipitation from Min6 lysate, Western blot.

B1: mAb28G11 (antibody against cytoplasmic domain of IGFR-I2) (antibody, V domains shown)
VH: DVQLQESGPGLVKPSQSLSLTCSVTGYSIISGYYWNWIRQFPGNKLEWMGYISYDGTIYYNPSLKNRISITRDTSKNQFFLKLNSVTTEDTATYYCAMRLGYWGQGTTLTVSS
VL: DIVMTQSPASLTVTAGEKVIMRCKSSQSLLNSGNQKNYLTWYQQKPGQPPKLLIYWASTKESGVPDRFTGSGSGTDFTLTISSVQAEDLAVYYCQNDYRYPFTFGSGTKLEIKR
On to B1, for which the binding entry was “binds”.
